This is one part of the list. Small differences around the control level are noise.
The targets below were run with CN[C@@H]1C[C@H]2O[C@@](C)([C@@H]1OC)n1c3ccccc3c3c4c(c5c6ccccc6n2c5c31)C(=O)NC4 [staurosporine] (assay: log2 fold change of tryptic peptide abundance, ligand vs vehicle (limited proteolysis) (log2 ratio); higher = more trypsin-susceptible (destabilized)). Conditions: ligand concentration: 20 uM; sample: K562 cleared lysate; digestion: 4 min, 22 C (HT-PELSA RT4min, Orbitrap Astral).

By UniProt entry, the sequences of proteins in these tests, tags left out. Where a name states a change or a piece, a line headed by the entry shows the natural chain unless it says otherwise.
UniProt Q3KQV9: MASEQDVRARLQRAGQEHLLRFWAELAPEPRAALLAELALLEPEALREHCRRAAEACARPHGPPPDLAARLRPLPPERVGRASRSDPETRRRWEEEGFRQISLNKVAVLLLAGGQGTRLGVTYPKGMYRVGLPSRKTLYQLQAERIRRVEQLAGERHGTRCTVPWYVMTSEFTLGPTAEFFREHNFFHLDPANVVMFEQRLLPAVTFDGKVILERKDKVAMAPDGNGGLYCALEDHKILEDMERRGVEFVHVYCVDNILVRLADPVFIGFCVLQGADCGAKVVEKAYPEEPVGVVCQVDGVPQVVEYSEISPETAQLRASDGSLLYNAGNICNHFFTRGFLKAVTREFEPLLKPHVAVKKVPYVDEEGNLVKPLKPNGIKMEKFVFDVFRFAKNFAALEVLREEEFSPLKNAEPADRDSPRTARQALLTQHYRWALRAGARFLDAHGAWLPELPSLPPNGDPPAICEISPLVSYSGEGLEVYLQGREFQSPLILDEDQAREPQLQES
UniProt Q15435: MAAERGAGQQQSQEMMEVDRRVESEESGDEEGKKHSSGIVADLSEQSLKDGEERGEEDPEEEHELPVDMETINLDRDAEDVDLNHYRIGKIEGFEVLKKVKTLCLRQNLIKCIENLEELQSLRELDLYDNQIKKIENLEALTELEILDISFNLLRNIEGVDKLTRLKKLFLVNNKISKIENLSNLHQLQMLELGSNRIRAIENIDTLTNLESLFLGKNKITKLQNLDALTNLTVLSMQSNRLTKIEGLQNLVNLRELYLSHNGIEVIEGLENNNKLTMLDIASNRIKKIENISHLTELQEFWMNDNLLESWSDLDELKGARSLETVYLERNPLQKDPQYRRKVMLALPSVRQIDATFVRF
UniProt Q16514: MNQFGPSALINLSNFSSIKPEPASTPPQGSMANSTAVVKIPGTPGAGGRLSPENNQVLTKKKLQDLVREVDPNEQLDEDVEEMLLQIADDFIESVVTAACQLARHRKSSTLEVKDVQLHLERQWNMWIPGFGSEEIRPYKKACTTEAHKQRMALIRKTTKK
UniProt Q16890: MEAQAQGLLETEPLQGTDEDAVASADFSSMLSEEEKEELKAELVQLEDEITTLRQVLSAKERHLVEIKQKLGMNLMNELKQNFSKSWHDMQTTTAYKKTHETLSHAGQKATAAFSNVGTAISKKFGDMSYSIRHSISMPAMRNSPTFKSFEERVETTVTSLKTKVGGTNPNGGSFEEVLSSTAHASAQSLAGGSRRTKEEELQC
UniProt Q15648, whole entry: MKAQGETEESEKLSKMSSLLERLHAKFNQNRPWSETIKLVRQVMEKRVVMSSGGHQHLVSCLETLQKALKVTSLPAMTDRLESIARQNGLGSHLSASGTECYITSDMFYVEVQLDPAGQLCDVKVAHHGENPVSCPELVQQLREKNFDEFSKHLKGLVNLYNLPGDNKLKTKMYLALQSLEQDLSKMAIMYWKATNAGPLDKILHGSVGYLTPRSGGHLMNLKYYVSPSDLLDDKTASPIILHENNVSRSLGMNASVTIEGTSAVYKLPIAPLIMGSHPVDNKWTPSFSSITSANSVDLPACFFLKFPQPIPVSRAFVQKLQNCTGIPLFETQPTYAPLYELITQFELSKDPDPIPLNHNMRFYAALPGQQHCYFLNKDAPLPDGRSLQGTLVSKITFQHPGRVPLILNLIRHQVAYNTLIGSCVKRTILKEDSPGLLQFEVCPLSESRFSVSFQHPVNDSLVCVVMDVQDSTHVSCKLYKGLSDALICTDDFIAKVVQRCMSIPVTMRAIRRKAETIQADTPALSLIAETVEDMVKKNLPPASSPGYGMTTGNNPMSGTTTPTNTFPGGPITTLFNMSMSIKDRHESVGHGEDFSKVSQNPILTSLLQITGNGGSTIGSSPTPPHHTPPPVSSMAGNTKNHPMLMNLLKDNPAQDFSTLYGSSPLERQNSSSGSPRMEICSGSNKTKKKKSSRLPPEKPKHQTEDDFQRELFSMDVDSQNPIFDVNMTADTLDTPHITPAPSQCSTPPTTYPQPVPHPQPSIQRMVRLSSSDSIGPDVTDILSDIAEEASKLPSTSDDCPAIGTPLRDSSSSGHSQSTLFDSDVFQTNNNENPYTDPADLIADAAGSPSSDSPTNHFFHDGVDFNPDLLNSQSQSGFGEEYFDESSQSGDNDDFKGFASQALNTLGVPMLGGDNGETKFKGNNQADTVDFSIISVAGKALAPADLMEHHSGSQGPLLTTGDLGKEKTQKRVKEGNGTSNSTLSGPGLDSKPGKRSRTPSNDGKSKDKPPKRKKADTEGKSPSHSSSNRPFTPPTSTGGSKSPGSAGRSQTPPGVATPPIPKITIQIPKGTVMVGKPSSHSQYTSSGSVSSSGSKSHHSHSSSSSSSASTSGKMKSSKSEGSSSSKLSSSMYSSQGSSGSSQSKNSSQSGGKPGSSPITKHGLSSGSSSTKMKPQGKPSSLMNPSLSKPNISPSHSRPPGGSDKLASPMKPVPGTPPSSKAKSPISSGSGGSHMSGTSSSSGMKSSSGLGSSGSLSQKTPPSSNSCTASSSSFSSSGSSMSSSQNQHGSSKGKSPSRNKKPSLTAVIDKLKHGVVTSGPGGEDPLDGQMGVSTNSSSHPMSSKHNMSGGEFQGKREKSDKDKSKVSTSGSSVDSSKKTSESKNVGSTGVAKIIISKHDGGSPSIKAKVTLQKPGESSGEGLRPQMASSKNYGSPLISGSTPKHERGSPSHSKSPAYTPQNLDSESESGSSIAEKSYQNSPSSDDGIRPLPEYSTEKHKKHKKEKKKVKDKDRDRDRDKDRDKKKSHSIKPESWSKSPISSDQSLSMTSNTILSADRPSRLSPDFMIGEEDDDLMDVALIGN
UniProt Q15746, whole entry: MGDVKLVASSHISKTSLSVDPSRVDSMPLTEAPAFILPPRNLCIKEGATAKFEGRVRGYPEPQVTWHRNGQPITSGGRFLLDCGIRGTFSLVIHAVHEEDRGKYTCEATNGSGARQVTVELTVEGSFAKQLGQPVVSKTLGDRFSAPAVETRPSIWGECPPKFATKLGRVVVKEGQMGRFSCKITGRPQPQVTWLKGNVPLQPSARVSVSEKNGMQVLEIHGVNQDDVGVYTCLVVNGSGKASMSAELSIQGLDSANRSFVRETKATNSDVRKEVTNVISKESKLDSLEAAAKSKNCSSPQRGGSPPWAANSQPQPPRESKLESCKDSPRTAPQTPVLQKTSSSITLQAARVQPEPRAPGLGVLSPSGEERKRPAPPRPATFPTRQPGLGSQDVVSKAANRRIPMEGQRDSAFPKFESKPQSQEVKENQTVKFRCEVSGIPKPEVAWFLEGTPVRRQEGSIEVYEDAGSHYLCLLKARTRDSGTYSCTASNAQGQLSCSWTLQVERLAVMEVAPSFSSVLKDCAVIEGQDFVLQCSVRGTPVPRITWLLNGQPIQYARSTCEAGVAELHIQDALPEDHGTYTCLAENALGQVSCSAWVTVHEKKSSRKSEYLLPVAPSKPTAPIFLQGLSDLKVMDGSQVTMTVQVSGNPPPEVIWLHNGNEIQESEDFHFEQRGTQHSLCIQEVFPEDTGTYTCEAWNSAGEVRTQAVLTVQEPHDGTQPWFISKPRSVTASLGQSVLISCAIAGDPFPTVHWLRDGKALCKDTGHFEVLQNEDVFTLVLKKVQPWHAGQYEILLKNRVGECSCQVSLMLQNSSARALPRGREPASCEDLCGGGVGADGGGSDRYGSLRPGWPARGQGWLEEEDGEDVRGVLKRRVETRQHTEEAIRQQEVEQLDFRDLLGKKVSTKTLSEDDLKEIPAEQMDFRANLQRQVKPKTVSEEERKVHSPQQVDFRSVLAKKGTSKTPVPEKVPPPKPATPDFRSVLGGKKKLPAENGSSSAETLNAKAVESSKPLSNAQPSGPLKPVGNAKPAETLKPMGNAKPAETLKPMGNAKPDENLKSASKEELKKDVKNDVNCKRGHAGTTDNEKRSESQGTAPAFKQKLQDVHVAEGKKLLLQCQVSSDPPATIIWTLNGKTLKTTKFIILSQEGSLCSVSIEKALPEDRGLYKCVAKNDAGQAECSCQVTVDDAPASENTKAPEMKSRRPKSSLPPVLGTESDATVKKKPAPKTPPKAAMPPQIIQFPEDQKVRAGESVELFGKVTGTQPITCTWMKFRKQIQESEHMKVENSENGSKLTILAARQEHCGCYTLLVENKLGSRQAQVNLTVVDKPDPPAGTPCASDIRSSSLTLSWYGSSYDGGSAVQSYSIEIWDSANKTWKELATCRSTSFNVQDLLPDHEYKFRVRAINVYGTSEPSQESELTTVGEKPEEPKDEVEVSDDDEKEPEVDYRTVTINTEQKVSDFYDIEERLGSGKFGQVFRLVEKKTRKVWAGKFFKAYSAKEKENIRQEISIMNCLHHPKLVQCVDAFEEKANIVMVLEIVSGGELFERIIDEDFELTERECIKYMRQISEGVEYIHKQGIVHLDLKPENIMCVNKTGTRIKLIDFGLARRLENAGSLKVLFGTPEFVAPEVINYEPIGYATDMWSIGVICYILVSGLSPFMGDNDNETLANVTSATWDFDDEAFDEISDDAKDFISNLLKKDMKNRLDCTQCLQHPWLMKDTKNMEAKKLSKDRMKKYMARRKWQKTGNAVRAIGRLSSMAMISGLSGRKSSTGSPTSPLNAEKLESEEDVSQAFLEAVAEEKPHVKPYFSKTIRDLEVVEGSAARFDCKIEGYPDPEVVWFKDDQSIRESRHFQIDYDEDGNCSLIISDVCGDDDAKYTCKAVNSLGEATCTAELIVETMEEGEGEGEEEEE
UniProt Q17RY0: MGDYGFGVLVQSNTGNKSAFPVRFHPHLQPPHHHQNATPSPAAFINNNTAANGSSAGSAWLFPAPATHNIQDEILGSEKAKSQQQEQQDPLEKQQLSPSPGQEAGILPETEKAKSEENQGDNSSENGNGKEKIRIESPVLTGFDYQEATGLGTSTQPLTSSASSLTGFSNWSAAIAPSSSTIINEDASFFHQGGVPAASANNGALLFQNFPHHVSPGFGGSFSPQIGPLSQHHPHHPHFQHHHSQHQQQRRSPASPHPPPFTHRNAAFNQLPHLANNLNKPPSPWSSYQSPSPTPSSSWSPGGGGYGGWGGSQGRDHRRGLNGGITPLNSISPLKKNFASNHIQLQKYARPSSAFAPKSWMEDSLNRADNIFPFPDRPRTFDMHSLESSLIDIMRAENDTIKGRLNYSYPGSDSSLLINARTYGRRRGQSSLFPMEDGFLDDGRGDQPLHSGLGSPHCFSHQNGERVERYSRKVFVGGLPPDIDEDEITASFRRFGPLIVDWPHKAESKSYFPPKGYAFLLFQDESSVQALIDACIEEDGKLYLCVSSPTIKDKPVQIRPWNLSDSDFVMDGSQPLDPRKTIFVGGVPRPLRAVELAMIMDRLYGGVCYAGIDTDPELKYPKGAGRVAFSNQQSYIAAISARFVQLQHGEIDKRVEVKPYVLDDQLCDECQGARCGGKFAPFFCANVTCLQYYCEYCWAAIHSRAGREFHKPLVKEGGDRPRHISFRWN
UniProt Q16539, whole entry: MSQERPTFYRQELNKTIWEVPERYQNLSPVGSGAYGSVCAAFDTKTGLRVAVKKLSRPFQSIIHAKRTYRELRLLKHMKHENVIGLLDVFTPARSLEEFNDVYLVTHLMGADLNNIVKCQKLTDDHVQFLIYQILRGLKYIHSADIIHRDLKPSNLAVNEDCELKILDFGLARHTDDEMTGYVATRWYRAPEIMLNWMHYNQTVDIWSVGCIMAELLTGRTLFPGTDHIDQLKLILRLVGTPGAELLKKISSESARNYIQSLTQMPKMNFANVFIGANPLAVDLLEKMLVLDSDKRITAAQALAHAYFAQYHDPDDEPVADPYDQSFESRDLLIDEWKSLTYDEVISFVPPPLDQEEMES
UniProt Q15776: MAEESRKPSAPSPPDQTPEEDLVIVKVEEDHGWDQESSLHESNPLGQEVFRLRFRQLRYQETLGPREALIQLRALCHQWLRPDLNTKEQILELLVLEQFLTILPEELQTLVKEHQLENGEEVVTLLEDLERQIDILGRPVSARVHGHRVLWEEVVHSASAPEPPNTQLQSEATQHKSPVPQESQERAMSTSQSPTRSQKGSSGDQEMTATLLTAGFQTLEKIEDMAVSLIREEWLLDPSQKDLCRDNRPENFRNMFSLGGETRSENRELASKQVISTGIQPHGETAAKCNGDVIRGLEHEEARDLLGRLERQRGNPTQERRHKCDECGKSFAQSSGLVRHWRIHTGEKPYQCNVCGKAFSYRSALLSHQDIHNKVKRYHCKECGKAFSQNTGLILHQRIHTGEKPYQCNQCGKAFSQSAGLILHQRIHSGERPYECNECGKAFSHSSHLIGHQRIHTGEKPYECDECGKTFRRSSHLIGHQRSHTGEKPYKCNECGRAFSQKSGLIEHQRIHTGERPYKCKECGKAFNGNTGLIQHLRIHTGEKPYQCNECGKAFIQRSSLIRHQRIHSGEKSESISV

Target	log2 fold change
UAP1L1 (peptide sequence: TLYQLQAER, peptide start residue: 137) (UniProt Q3KQV9)	0.608
PPP1R7 (peptide sequence: SLETVYLERNPLQKDPQYR, peptide start residue: 322) (UniProt Q15435)	-0.455
TAF12 (peptide sequence: QWNMWIPGFGSEEIRPYKK, peptide start residue: 123) (UniProt Q16514)	-0.228
TPD52L1 (peptide sequence: KTHETLSHAGQK, peptide start residue: 98) (UniProt Q16890)	0.199
MED1 (peptide sequence: HDGGSPSIK, peptide start residue: 1397) (UniProt Q15648)	-0.212
UniProt Q15149 (peptide sequence: AEEAEAQKR, peptide start residue: 1619)	-0.968
MYLK (peptide sequence: SASKEELK, peptide start residue: 517) (UniProt Q15746)	0.222
CPEB4 (peptide sequence: SWMEDSLNR, peptide start residue: 359) (UniProt Q17RY0)	-0.225
MAPK14 (peptide sequence: DLKPSNLAVNEDCELK, peptide start residue: 150) (UniProt Q16539)	-0.301
UniProt Q15776 (peptide sequence: QIDILGRPVSAR, peptide start residue: 132)	-0.201

Source: the supplement of paper PMC12819154, “High-throughput peptide-centric local stability assay extends protein–ligand identification to membrane proteins, tissues and bacteria” (Nature Structural & Molecular Biology, 2025)
